Reference: publication PMC11269292
These are yes or no findings as the source states them, for the method shown. Binding seen in cells or lysates may run through a third protein. Some binding calls cover weakened binding; strength is not graded here. Tags and fused reporters may be left off the sequences shown.

T1: ASGR1-3×Flag (asialoglycoprotein receptor 1, from pEF1a-ASGR1-3×Flag-IRES-GFP) (human) (UniProt P07306)
T1 sequence: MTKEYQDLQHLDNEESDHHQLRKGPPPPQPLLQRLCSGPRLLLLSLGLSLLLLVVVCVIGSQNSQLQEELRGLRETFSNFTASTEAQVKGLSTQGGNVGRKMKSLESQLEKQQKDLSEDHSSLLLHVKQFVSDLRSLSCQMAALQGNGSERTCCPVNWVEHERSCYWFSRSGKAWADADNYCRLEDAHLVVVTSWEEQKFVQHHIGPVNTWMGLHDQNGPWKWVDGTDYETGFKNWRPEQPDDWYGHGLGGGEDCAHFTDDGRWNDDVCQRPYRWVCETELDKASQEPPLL

B1: PON2 truncation PΔ3 (Δ232–354), HA-tagged (domain or fragment, UniProt Q15165 1-231)
chain: MGRLVAVGLLGIALALLGERLLALRNRLKASREVESVDLPHCHLIKGIEAGSEDIDILPNGLAFFSVGLKFPGLHSFAPDKPGGILMMDLKEEKPRARELRISRGFDLASFNPHGISTFIDNDDTVYLFVVNHPEFKNTVEIFKFEEAENSLLHLKTVKHELLPSVNDITAVGPAHFYATNDHYFSDPFLKYLETYLNLHWANVVYYSPNEVKVVAEGFDSANGINISPDD
B2: ASGR1-3×Flag (asialoglycoprotein receptor 1, from pEF1a-ASGR1-3×Flag-IRES-GFP) (receptor, UniProt P07306 1-291)
chain: T1 sequence
B3: PON2 truncation PΔ2 (Δ123–231), HA-tagged (domain or fragment, UniProt Q15165)
chain: MGRLVAVGLLGIALALLGERLLALRNRLKASREVESVDLPHCHLIKGIEAGSEDIDILPNGLAFFSVGLKFPGLHSFAPDKPGGILMMDLKEEKPRARELRISRGFDLASFNPHGISTFIDNKYIYVADILAHEIHVLEKHTNMNLTQLKVLELDTLVDNLSIDPSSGDIWVGCHPNGQKLFVYDPNNPPSSEVLRIQNILSEKPTVTTVYANNGSVLQGSSVASVYDGKLLIGTLYHRALYCEL

Key:
[1] = molecular target: T1, ASGR1-3×Flag (asialoglycoprotein receptor 1, from pEF1a-ASGR1-3×Flag-IRES-GFP) (human); assay: co-IP; HEK293T co-transfected with HA-tagged PON2 (or its truncations) and Flag-tagged ASGR1; precipitated with Flag antibody (ASGR1 as bait); western blot for PON2 and ASGR1
[2] = molecular target: PON2-3×HA (paraoxonase-2, from pEF1a-PON2-3×HA-SV40-Puro) (human (cDNA of HepG2 cells)) (UniProt Q15165); assay: co-IP; HEK293T co-transfected with ASGR1-3×Flag and candidate-3×HA; whole-cell extracts precipitated with anti-HA antibody (rabbit IgG as control) 12 h at 4°C, Protein A/G Agarose, five washes; western blot for Flag and HA

Binder	binding [1]	binding [2]
B1	binds	–
B2	–	binds
B3	binds	–
